These are yes or no findings as the source states them, for the method shown. Some binding calls cover weakened binding; strength is not graded here. For some of these results: Sequences can lack the tags named with a protein.
T1: purified recombinant human Napi2b antigen consisting of Napi2b-extracellular-loop2 expressed as Fc-fusion-6-His-tagged protein (human) (UniProt O95436)
T1 sequence: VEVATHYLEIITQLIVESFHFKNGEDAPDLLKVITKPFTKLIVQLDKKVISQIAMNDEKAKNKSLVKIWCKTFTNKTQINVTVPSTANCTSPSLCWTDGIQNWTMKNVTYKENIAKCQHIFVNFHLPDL


Key:
[1] = target: T1, purified recombinant human Napi2b antigen consisting of Napi2b-extracellular-loop2 expressed as Fc-fusion-6-His-tagged protein (human); experiment: ELISA on plates coated with 1 µg/mL recombinant human Napi2b extracellular-loop2 Fc-6-His antigen, HRP anti-human kappa light chain detection
[2] = target: human NaPi2b on NaPi2b-positive cell lines OVCAR-3 and HCC-78 (human) (UniProt O95436); experiment: flow cytometry on OVCAR-3 and HCC-78 cells
[3] = target: human NaPi2b on NaPi2b-positive cell lines OVCAR-3 and HCC-78 (human) (UniProt O95436); experiment: flow cytometry on NaPi2b-positive OVCAR-3 cells, Alexa-dye-labeled anti-human IgG H+L secondary antibody, MFI ratio normalized to the non-specific binding control
[4] = target: human NaPi2b on NaPi2b-positive cell lines OVCAR-3 and HCC-78 (human) (UniProt O95436); experiment: flow cytometry on NaPi2b-positive HCC-78 cells, Alexa-dye-labeled anti-human IgG H+L secondary antibody, MFI ratio normalized to the non-specific binding control

Row | Binder | binding [1] | binding [2] | binding [3] | binding [4]
1 | AV-15 antibody (antibody, human IgG1, kappa, L234A L235A, V domains shown) VH: EVQLVQSGAEVVKPGASVKMSCKASGYTFTGYNIHWVKQAPGQGLEWIGAIYPGNGDTSYKQKFRGRATLTADTSTSTVYMELSSLRSEDSAVYYCARGETARATFAYWGQGTLVTVSS VL: DIQMTQSPSSLSASVGDRVTITCSASQDIGKFLNWYQQKPGKTVKVLIYYSSSLYSGVPSRFSGSGSGTDYTLTISSLQPEDFATYYCQQYSKVPLTFGQGTKLELKR | binds | – | – | –
2 | AV-18 antibody (antibody, human IgG1, kappa, L234A L235A, V domains shown) VH: EVQLVQSGAEVVKPGASVKMSCKASGYTFTGYIIHWVKQAPGQGLEWIGAIYPGSGATSYKQKFRGRATLTADTSTSTVYMELSSLRSEDSAVYYCARGETARATFAYWGQGTLVTVSS VL: DIQMTQSPSSLSASVGDRVTITCSASQDIGNFLNWYQQKPGKTVKVLIYYTSSLYSGVPSRFSGSGSGTDYTLTISSLQPEDFATYYCQQYSKLPLTFGQGTKLELKR | binds | – | – | –

Results, then the binder that gave them:

Row | binding [1] | binding [2] | binding [3] | binding [4] | Binder
3 | binds | – | – | – | AV-21 antibody (antibody, human IgG1, kappa, L234A L235A, V domains shown) VH: EVQLVQSGAEVVKPGASVKMSCKASGYTFTGQIIHWVKQAPGQGLEWIGAISPGNSGTSYKQKFRGRATLTADTSTSTVYMELSSLRSEDSAVYYCARGETARATFAYWGQGTLVTVSS VL: DIQMTQSPSSLSASVGDRVTITCSASQDIGNFLNWYQQKPGKTVKVLIYYTSSLYSGVPSRFSGSGSGTDYTLTISSLQPEDFATYYCQQYSKLPLTFGQGTKLELKR
4 | binds | – | – | – | AV-29 antibody (antibody, human IgG1, kappa, L234A L235A, V domains shown) VH: EVQLVQSGAEVVKPGASVKMSCKASGYTFTGYNILWVKQAPGQGLEWIGAIYPGNGGTSYKQKFRGRATITADTSTSTVYMELSSLRSEDSAVYYCARGEIARATFAYWGQGTLVTVSS VL: DIQMTQSPSSLSASVGDRVTITCSASQDIGNFLNWYQQKPGKTVKVLIYYASSLYSGVPSRFSGSGSGTDYTLTISSLQPEDFATYYCQQYSKLPLTFGQGTKLELKR
5 | – | binds | binds | binds | Upifitamab (antibody, V domains shown) VH: EVQLVQSGAEVVKPGASVKMSCKASGYTFTGYNIHWVKQAPGQGLEWIGAIYPGNGDTSYKQKFRGRATLTADTSTSTVYMELSSLRSEDSAVYYCARGETARATFAYWGQGTLVTVSS VL: DIQMTQSPSSLSASVGDRVTITCSASQDIGNFLNWYQQKPGKTVKVLIYYTSSLYSGVPSRFSGSGSGTDYTLTISSLQPEDFATYYCQQYSKLPLTFGQGTKLELKR
